Experimental data: PubChem BioAssay AID1053208 (Peter MacCallum Cancer Centre, 2014)

- Screen: 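Genes whose silencing cuts survival of bone tumour cells only with doxorubicin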 (primary screen)
- Cells: mouse osteosarcoma cells, early-passage culture from an engineered mouse model of fibroblastic bone tumour
- Reagents: siRNA pool against mouse genes, 40 nM
- Time to read-out: about 120 h (48 h before drug, then 72 h with drug)
- Challenge: doxorubicin 100 nM for 72 h, roughly 30-40% inhibitory dose
- Detection: 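Luminescent ATP signal taken as viability with or without 100 nM doxorubicin for 72 h; mean of two wells set against non-targeting siRNA and turned into robust z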
- Reading the numbers: viability z-score with doxorubicin: higher = more viable cells under doxorubicin; viability z-score without drug: higher = more viable cells with knock-down alone
- Hit rule: 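a pool counts as active when its viability z-score with doxorubicin is -2 or below and its z-score without drug lies between -2 and 2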
The whole screen tested about 17,000 reagents; below is a random part of them. Over the whole deposit, 788 (4.7%) are marked active. 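Calls rest on z-score classes alone; an extra cut-off of viability at most 70% of control was not applied to them.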 Entries without a mark were called inactive. Not all columns of the deposit are shown.

gene | combined z-score class | viability z-score with doxorubicin | viability z-score without drug
Hddc3 (HD domain containing 3) | low cell count without drug only | -0.9 | -2.19
Tbrg4 (transforming growth factor beta regulated gene 4) | no change with or without drug | -0.22 | -0.51
Lsm10 (U7 snRNP-specific Sm-like protein LSM10) | no change with or without drug | -0.11 | -0.51
Med15 (mediator complex subunit 15) | low cell count with doxorubicin only (active) | -3.48 | 0.51
Hsf1 (heat shock factor 1) | no change with or without drug | -0.22 | 1.18
Ptpn20 (protein tyrosine phosphatase, non-receptor type 20) | no change with or without drug | 0 | -1.35
Fat1 (FAT atypical cadherin 1) | no change with or without drug | -0.79 | -1.52
Snx20 (sorting nexin 20) | no change with or without drug | 0 | 0.51
Or51b17 (olfactory receptor family 51 subfamily B member 17) | no change with or without drug | 0.79 | 1.01
Hacl2 (2-hydroxyacyl-CoA lyase 2) | no change with or without drug | -1.35 | -0.84
Cwc15 (CWC15 spliceosome-associated protein) | low cell count without drug only | 0.56 | -2.53
Hapln3 (hyaluronan and proteoglycan link protein 3) | no change with or without drug | 0.67 | 0.67
Or4k6 (olfactory receptor family 4 subfamily K member 6) | no change with or without drug | -0.67 | -0.34
Rai2 (retinoic acid induced 2) | no change with or without drug | 1.35 | -0.17
Or7e169 (olfactory receptor family 7 subfamily E member 169) | no change with or without drug | 0.22 | 0.51
Kifap3 (kinesin-associated protein 3) | no change with or without drug | -0.22 | 1.69
Ndufaf1 (NADH:ubiquinone oxidoreductase complex assembly factor 1) | no change with or without drug | -1.35 | -0.84

A few values from above.
Result for Hapln3 (hyaluronan and proteoglycan link protein 3) in “viability z-score with doxorubicin”: 0.67
Kifap3 (kinesin-associated protein 3), combined z-score class = no change with or without drug
Entry of Or7e169 (olfactory receptor family 7 subfamily E member 169) in “combined z-score class”: no change with or without drug
Hacl2 (2-hydroxyacyl-CoA lyase 2), combined z-score class = no change with or without drug
Snx20 (sorting nexin 20), viability z-score with doxorubicin = 0
Under “viability z-score with doxorubicin”, Hsf1 (heat shock factor 1) reads -0.22

The results go on:
gene | combined z-score class | viability z-score with doxorubicin | viability z-score without drug
Cpeb1 (cytoplasmic polyadenylation element binding protein 1) | no change with or without drug | 1.8 | 0.84
Smyd2 (SET and MYND domain containing 2) | no change with or without drug | 0.67 | 0.67
Zfp423 (zinc finger protein 423) | high cell count without drug only | 0.9 | 2.19
Kcne3 | no change with or without drug | -0.22 | 0.17
Sult2b1 (sulfotransferase family, cytosolic, 2B, member 1) | no change with or without drug | 0 | 0.84
Slc6a12 | no change with or without drug | 1.46 | 1.18
Kcns2 (K+ voltage-gated channel, subfamily S, 2) | no change with or without drug | -0.45 | 0.84
Alox5ap (arachidonate 5-lipoxygenase activating protein) | no change with or without drug | 0.67 | 0.34
Rab39b (RAB39B, member RAS oncogene family) | no change with or without drug | -0.22 | -0.84
Itga8 (integrin alpha 8) | no change with or without drug | 0.11 | -0.17
Duxbl1 (double homeobox B-like 1) | no change with or without drug | 1.35 | 1.01
Haghl (hydroxyacylglutathione hydrolase-like) | no change with or without drug | 0.9 | -0.17
Hyal3 (hyaluronoglucosaminidase 3) | no change with or without drug | 0.22 | -0.84
Scd3 (stearoyl-coenzyme A desaturase 3) | no change with or without drug | 0.67 | 0.17
Cep43 (centrosomal protein 43) | no change with or without drug | -0.56 | 0.84
Itga3 (integrin alpha 3) | no change with or without drug | -0.67 | -1.01
Ints15 (integrator complex subunit 15) | no change with or without drug | 0 | 0.17
Or1x2 (olfactory receptor family 1 subfamily X member 2) | no change with or without drug | 1.35 | 1.18
Nox1 (NADPH oxidase 1) | no change with or without drug | -1.01 | -0.84
Mepe | high cell count without drug only | 1.24 | 3.37
Sspn (sarcospan) | no change with or without drug | -0.22 | -1.52
Gys2 (glycogen synthase 2) | high cell count with doxorubicin only | 2.47 | 1.35
Or2t45 (olfactory receptor family 2 subfamily T member 45) | no change with or without drug | -1.35 | 0.17
Clcnka (chloride channel, voltage-sensitive Ka) | no change with or without drug | -1.69 | -0.17
Thrap3 (thyroid hormone receptor associated protein 3) | no change with or without drug | 0 | 0.67
Rab8b (RAB8B, member RAS oncogene family) | no change with or without drug | -0.67 | 0.67
4930422G04RIK | no change with or without drug | -1.57 | 1.52
Or6c207 (olfactory receptor family 6 subfamily C member 207) | high cell count with and without drug | 2.02 | 2.7
Magea4 (MAGE family member A4) | no change with or without drug | 0 | 0.67
Or4l15 (olfactory receptor family 4 subfamily L member 15) | no change with or without drug | -1.12 | -0.67
Galnt4 (polypeptide N-acetylgalactosaminyltransferase 4) | no change with or without drug | -0.9 | 0.17
Wdr26 (WD repeat domain 26) | no change with or without drug | -0.67 | 0.17
Kcnv2 (potassium channel, subfamily V, member 2) | low cell count without drug only | -0.22 | -2.53
